The chains behind the UniProt entries cited, without tags or fusion partners. Where a name states a change or a piece, a line headed by the entry shows the natural chain unless it says otherwise.
UniProt P18054: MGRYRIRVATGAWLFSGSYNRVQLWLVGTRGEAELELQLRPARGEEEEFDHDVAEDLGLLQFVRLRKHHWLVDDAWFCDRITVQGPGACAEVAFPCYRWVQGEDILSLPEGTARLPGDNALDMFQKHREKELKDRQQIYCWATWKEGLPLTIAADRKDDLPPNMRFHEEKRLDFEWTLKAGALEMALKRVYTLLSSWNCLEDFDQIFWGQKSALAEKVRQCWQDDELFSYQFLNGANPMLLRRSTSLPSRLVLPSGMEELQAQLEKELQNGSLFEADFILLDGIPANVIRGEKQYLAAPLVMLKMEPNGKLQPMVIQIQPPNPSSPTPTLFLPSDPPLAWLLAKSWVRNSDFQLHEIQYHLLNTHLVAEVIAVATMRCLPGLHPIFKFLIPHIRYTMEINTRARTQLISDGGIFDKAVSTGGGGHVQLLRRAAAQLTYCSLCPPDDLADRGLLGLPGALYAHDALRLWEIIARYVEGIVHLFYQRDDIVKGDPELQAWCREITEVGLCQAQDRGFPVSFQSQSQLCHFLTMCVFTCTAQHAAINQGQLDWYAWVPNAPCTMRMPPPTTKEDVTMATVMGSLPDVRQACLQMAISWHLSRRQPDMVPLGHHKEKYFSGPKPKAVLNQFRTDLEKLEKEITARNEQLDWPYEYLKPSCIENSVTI

Hit rate of the full screen: of about 580,000 compounds, about 6,100 (1.1%) were called active. The inconclusive results got no clear call from the source; some entries with a clear call stand among them for comparison. The call rests on the fitted dose curve; in most records, active means well fitted inhibition curve with a large enough effect; inconclusive means small, poorly fitted or top-dose-only effect, or another doubt; inactive means no such curve, though single readings can be large or run the other way. Where the call is inconclusive, the potency comes from a doubtful curve fit.
The molecules below were run against Polyunsaturated fatty acid lipoxygenase ALOX12 (Homo sapiens) (UniProt P18054) (assay: Primary qHTS assay for inhibitors of human arachidonate 12S-lipoxygenase (ALOX12): Round 2). Details: purified 12hLO, xylenol orange hydroperoxide absorbance; activity change, negative = inhibition: at 108 µM (top of the series) unless noted.
Outline: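 Purified human 12hLO at 150 nM in 25 mM Hepes, 0.01% Triton X-100, pH 7.0, preincubated 15 min at room temperature with compound. Reaction started with 40 uM arachidonic acid, 30 min at room temperature. Hydroperoxide measured by Fe-xylenol orange, 573/405 nm absorbance ratio.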
In the case of `CC(=O)c1ccc(NC(=O)N[C@@H]2C=C(C(=O)N[C@H](CC(C)C)C(N)=O)C[C@@H](O)[C@@H]2O)cc1`, the “activity change, negative = inhibition” value was inactive: 18.9%.
In the case of `CCOc1ccc(CCNC(=O)C2CCCN(c3nc4ccc(OCC)cc4s3)C2)cc1` (configuration not stated), the “activity change, negative = inhibition” value was inactive: 8.3%.
`O=C(O)C(=O)/C(=C\c1ccsc1)c1ccc2ccccc2n1` was tested, and the Potency was inconclusive: 44.7 µM [inhibitor, partial curve].
With `Cc1ccc(C(=O)c2c3ccc(C(F)(F)F)cc3[n+]([O-])n2CCCC(N)=O)cc1` the Potency was inconclusive: 50.1 µM [inhibitor, partial curve, poor fit].
For `Cc1cc(C)c(OCCCNCc2ccccc2)c(Br)c1`, the Potency was inconclusive: 10 µM [inhibitor, full curve, poor fit].
`c1coc(Cn2c(SCc3nc4ccccc4[nH]3)nnc2-c2cnccn2)c1` was tested, and the Potency was inconclusive: 44.7 µM [inhibitor, partial curve, poor fit].
In the case of `COc1ccc(NC(=S)/N=C(\N)Nc2nc(C)c3ccc(C)cc3n2)cc1`, the Potency was inconclusive: 8.91 µM [inhibitor, partial curve, poor fit].
`COc1ccc(C)cc1NS(=O)(=O)c1cc(-c2c(C)nn3c2NC(=O)CCC3=O)ccc1OC` was tested, and the “activity change, negative = inhibition” value was inactive: 12.9%.
In the case of `CCCCC(NC(C)=O)c1nc2ccccc2n1CCCC` (configuration not stated), the “activity change, negative = inhibition” value was inactive: -14.2%.
In the case of `O=[N+]([O-])c1cccc(COc2cccc(CN3CCCCC3)c2)c1`, the Potency was inconclusive: 79.4 µM [inhibitor, single point].
In the case of `COc1ccc(S(=O)(=O)N2CCN(Cc3ccc(Cl)cc3)CC2)cc1`, the Potency was inconclusive: 0.398 µM [inhibitor, full curve, poor fit].
`CN(C(=O)COC(=O)CSc1ccc(C(N)=O)cc1[N+](=O)[O-])C1CCCCC1` was tested, and the Potency was inconclusive: 15.8 µM [inhibitor, partial curve].
`CC(C)CC(N)c1csc(Nc2ccc(C(=O)c3ccccc3)cc2)n1` (configuration not stated) was tested, and the Potency was inconclusive: 50.1 µM [inhibitor, partial curve, poor fit].
`O=C(CN1C(=O)NC2(CCOCC2)C1=O)Nc1ccccc1F` was tested, and the Potency was inconclusive: 25.1 µM [inhibitor, partial curve, poor fit].
With `O=C1NC(=O)/C(=C/c2ccco2)N1` the “activity change, negative = inhibition” value was inactive: -22.9%.
`NC(=O)C1CCN(c2nc(-c3ccccc3F)cs2)CC1` was tested, and the Potency was inconclusive: 50.1 µM [inhibitor, partial curve, poor fit].
For `C1CCC(NCC2CCN(C3CC3)C2)C1` (configuration not stated), the Potency was inconclusive: 39.8 µM [inhibitor, partial curve, poor fit].
`COc1ccccc1N1CCN(C(=O)/C=C/c2cccs2)CC1` was tested, and the “activity change, negative = inhibition” value was inactive: -10.2%.
In the case of `Cc1ccccc1C(=O)NC(=S)Nc1sc2c(c1C#N)CCC(C)C2` (configuration not stated), the Potency was inconclusive: 2.82 µM [inhibitor, full curve, poor fit].
`CC1(C)N=C(SCc2ccccc2Cl)c2ccccc2N1` was tested, and the “activity change, negative = inhibition” value was inactive: -9.25%.
With `C/C=C/C(=O)N1c2ccc(C)cc2C(C)=CC1(C)C` the “activity change, negative = inhibition” value was inactive: -4.41%.
In the case of `CC(O)c1ccc(-c2ccc(CNc3nnnn3C)o2)cc1` (configuration not stated), the Potency was inconclusive: 35.5 µM [inhibitor, single point].
In the case of `CCN1C(=O)C2CCCCN2c2ccc(C(=O)NCCOC)cc21` (configuration not stated), the “activity change, negative = inhibition” value was inactive: -0.0929%.
For `Cn1c(=O)c2cc(NC(=S)NC3CCCCC3)ccc2n1Cc1ccc(F)cc1`, the Potency was inconclusive: 100 µM [inhibitor, partial curve, poor fit].
For `Nc1ccc2c(c1)C(O)c1cccc(C(=O)O)c1-2` (configuration not stated), the Potency was inconclusive: 39.8 µM [inhibitor, partial curve, poor fit].
For `COc1ccc(S(=O)(=O)Nc2ccc3oc4c(c3c2)CCCC4)cc1`, the Potency was inconclusive: 79.4 µM [inhibitor, partial curve, poor fit].
`CN(Cc1ccccc1)C(=O)c1c[nH]c2ccc(S(=O)(=O)N3CCOCC3)cc2c1=O` was tested, and the activity change, negative = inhibition was inconclusive: -34% [inhibitor].
For `O=S(=O)(c1ccc(-c2csc(NC3CCCC3)n2)cc1)N1CCCC1`, the Potency was inconclusive: 56.2 µM [inhibitor, partial curve, poor fit].
`CCc1cccc2c(C3=CCN(C(=O)CC(C)C)CC3)c[nH]c12` was tested, and the Potency was inconclusive: 0.355 µM [inhibitor, full curve, poor fit].
For `Cc1csc(=O)n1CC(=O)Nc1ccc(C(C)C)cc1`, the Potency was inconclusive: 35.5 µM [inhibitor, partial curve, poor fit].
For `COc1ccc(/C=C(\NC(=O)c2ccc(C)cc2)C(=O)NCCCn2ccnc2)cc1`, the “activity change, negative = inhibition” value was inactive: 16.5%.
In the case of `N#Cc1nc(-c2ccc(F)cc2)oc1NCc1ccccc1`, the Potency was inconclusive: 50.1 µM [inhibitor, partial curve, poor fit].
With `CC(C)NC(=S)N/N=C/c1sc(N2CCCCC2)nc1-c1cccs1` the Potency was active: 35.5 µM.
`CC(=O)c1cccc(NC(=O)CSc2nc(=O)n(Cc3ccco3)c3c2CCC3)c1` was tested, and the Potency was inconclusive: 100 µM [inhibitor, partial curve, poor fit].
For `COc1ccc(C(=O)N2CCc3ccc(C(=O)NC4CCCCC4)cc32)cc1`, the “activity change, negative = inhibition” value was inactive: 23.2%.
With `CNC(=O)c1[nH]cnc1C(=O)N[C@@H](C)C(=O)OCc1ccccc1` the “activity change, negative = inhibition” value was inactive: 1.83%.
`C#CCOCCOCCOCCNc1nc(N2CCN(C(=O)Cn3cc(CCCN=C(N)N)nn3)CC2)nc(N2CCN(C(=O)[C@H]([C@@H](C)CC)n3cc(CCC(=O)O)nn3)CC2)n1` was tested, and the Potency was inconclusive: 3.98 µM [inhibitor, full curve, poor fit].
In the case of `COc1ccc(CN(C)Cc2c(O)ccc3ccccc23)cc1`, the Potency was active: 10 µM.
With `Cc1oc(-c2cccc(Cl)c2)nc1CS(=O)(=O)CC(=O)NC(C)CCc1ccccc1` (configuration not stated) the activity change, negative = inhibition was inconclusive: -30.3% [inhibitor].
With `CC(C)OCCCn1c(=NC(=O)c2cccs2)c(C#N)cc2c(=O)n3ccccc3nc21` the “activity change, negative = inhibition” value was inactive: 5.02%.
`CCN(CC)C(=O)CN(C1CCCCC1)S(=O)(=O)c1ccc(Br)cc1` was tested, and the Potency was inconclusive: 89.1 µM [inhibitor, partial curve, poor fit].
In the case of `COc1ccc(-n2c(-c3ccco3)nc3c(cnn3-c3ccc(Cl)cc3)c2=O)cc1`, the “activity change, negative = inhibition” value was inactive: 0%.
`C/C(=N\Nc1nccnc1Cl)c1ccc([N+](=O)[O-])cc1` was tested, and the “activity change, negative = inhibition” value was inactive: 463%.
With `CCOc1ccc(Br)cc1C(=S)N1CCCC1` the “activity change, negative = inhibition” value was inactive: 40.8%.
`O=S(=O)(c1ccccc1)N1CCSC1c1ccco1` (configuration not stated) was tested, and the Potency was inconclusive: 0.501 µM [inhibitor, full curve, poor fit].
For `O=C(NC(=S)NC(CO)c1ccccc1)c1ccc(F)cc1` (configuration not stated), the Potency was inconclusive: 44.7 µM [inhibitor, partial curve, poor fit].
For `Cc1nn(-c2ccc3nnc(C)n3n2)c2c1C(c1ccccc1Cl)CC(=O)N2` (configuration not stated), the Potency was inconclusive: 89.1 µM [inhibitor, partial curve, poor fit].
In the case of `S=C(NCc1ccc(Cl)cc1)Nc1ccc(Cl)c(Cl)c1`, the Potency was inconclusive: 39.8 µM [inhibitor, partial curve, poor fit].
In the case of `CCN(CC)CCNC(=O)/C(=C/c1cn(CC)c2ccccc12)NC(=O)c1cc(OC)c(OC)c(OC)c1`, the “activity change, negative = inhibition” value was inactive: -8.42%.
In the case of `O=C(COc1ccc(Cl)cc1)Nc1cnn(Cc2c(Cl)cccc2Cl)c1`, the “activity change, negative = inhibition” value was inactive: 0%.
`Cc1nc(NC(=O)C(C)(C)C)sc1-c1csc(N)n1` was tested, and the Potency was inconclusive: 28.2 µM [inhibitor, partial curve, poor fit].
With `CN(Cc1ccccc1)C(=O)Cc1ccc(N(Cc2cccc(F)c2)C(=O)c2ccco2)cc1` the Potency was inconclusive: 17.8 µM [inhibitor, full curve].
`COc1cc(OC)cc(-c2c(C#Cc3ccsc3)c3cc(-c4ccc(OC)c(F)c4)ccc3n2C)c1` was tested, and the Potency was inconclusive: 79.4 µM [inhibitor, single point].
With `CN(CCCNC(=O)C1CCC(=O)N1Cc1ccccc1Cl)c1ccccc1` (configuration not stated) the Potency was inconclusive: 112 µM [inhibitor, single point].
With `COc1ccc(CCNCCc2ccc(OC)cc2)cc1` the Potency was inconclusive: 70.8 µM [inhibitor, single point].
For `O=C1CCCC2=C1C(c1cccs1)Nc1ccc3ncccc3c12` (configuration not stated), the “activity change, negative = inhibition” value was inactive: -7.59%.
`CCn1nc(C(=O)OCC(=O)N(CC(C)C)c2c(N)n(Cc3ccccc3)c(=O)[nH]c2=O)c2ccccc2c1=O` was tested, and the Potency was inconclusive: 4.47 µM [inhibitor, full curve, poor fit].
In the case of `Cc1ccc(C(=O)c2c3ccc(C(F)(F)F)cc3nn2CCC(N)=O)cc1`, the Potency was inconclusive: 79.4 µM [inhibitor, partial curve, poor fit].
With `Cc1nc2ccccc2nc(=O)c1NNc1ccccc1` the Potency was inconclusive: 50.1 µM [inhibitor, partial curve, poor fit].
`COc1cc(OC)c(OC)cc1/C=C/C(=O)c1ccc(OC(F)F)c(OC)c1` was tested, and the Potency was inconclusive: 7.94 µM [inhibitor, single point].
`CCc1ccc(NC(=O)CN(c2ccc(Cl)cc2)S(=O)(=O)c2ccsc2C(=O)OC)cc1` was tested, and the Potency was inconclusive: 112 µM [inhibitor, single point].
With `Cc1ccc(-c2ocnc2C(=O)NCc2ccc(OC(C)C)cc2)s1` the Potency was inconclusive: 141 µM [inhibitor, single point].
For `Cc1nc2ccc(C(=O)NCC(C)C)cc2nc1C`, the “activity change, negative = inhibition” value was inactive: 12.7%.
In the case of `CCOc1ccc(NC(=S)N(CCN2CCOCC2)Cc2ccc3c(c2)CCCN3CC)cc1`, the “activity change, negative = inhibition” value was inactive: 9.2%.
With `CCOc1ccc(NC(=O)c2c(NCc3cccc(OC)c3OC)sc3c2CCC3)cc1` the Potency was inconclusive: 50.1 µM [inhibitor, partial curve, poor fit].
With `CN1CCCCCCN(C(=O)c2ccc3ncccc3c2)[C@H]2CCC[C@H]2C1=O` the “activity change, negative = inhibition” value was inactive: 55.4%.
In the case of `CC(C)n1cc(-c2nc3cc(S(=O)(=O)N4CCCC4)ccc3n2C)cn1`, the Potency was inconclusive: 3.55 µM [inhibitor, full curve, poor fit].
On the % scale 0 is the no-effect control and ±100 the full control effect; potency means the concentration at half of the fitted maximal effect.
